# According to paper PMC3079739:
# The chains behind the UniProt entries cited, without tags or fusion partners. Where a name states a change or a piece, a line headed by the entry shows the natural chain unless it says otherwise. Residues count along the entry.
# UniProt P01555: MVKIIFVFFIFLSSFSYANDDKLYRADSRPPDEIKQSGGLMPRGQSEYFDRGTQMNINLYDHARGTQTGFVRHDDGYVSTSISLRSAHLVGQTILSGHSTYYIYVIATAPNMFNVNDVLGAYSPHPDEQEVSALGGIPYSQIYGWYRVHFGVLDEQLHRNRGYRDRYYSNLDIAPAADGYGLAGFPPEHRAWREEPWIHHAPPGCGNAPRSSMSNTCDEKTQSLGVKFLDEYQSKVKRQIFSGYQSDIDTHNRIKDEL
# UniProt P07237, residues 18-508: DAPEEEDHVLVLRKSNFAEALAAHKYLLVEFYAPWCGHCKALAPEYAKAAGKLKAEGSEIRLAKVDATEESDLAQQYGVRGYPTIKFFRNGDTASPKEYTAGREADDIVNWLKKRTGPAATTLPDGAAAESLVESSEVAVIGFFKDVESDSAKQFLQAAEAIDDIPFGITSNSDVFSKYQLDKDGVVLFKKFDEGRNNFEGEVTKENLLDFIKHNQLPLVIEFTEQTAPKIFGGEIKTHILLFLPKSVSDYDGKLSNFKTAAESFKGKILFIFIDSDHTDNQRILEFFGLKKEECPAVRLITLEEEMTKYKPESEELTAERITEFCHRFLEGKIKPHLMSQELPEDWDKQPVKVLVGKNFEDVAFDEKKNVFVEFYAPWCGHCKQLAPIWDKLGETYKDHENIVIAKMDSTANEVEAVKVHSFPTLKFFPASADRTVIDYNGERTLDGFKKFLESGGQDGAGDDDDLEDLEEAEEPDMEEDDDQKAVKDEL
# No constants are given. Whether binding was seen depends on the method and setting. Some entries that bind do so weakly or less than the wild type.
# Target: Cholera toxin (CT) holotoxin (Vibrio cholerae) (UniProt P01555)
# Experiment: SPR; both purified
substance,measurement,value
"protein disulfide isomerase (PDI), reduced (from UniProt P07237 18-508) (enzyme)",binding,binds
